Results as given in publication PMC8688910.
Results are given in words; binding and its absence hold for the method and conditions named. Where a sequence is shown, tags or fusion partners need not be part of it.

Target: T1, C-terminal domain of IpaH1.4 (IpaH-CTD), N-terminally his6-tagged, produced in CFPS (S. flexneri 2a), A0A0H2
T1 chain: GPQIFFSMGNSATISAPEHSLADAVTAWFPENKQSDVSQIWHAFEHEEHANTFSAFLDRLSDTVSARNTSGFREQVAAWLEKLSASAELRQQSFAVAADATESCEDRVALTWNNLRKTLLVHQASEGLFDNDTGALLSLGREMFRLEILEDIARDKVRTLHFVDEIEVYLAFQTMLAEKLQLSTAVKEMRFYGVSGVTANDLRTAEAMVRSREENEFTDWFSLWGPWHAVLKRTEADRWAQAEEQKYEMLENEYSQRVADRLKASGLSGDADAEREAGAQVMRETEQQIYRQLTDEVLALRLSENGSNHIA
Experiment: SEC-MALS; Superdex75 10/30 GL, 50 mM Tris pH 8, 150 mM NaCl, 0.5 mL/min, column 25 °C, about 50-100 μg injected; both purified
Conditions: remark: other sources report otherwise

B1: C-terminal domain of IpaH1.4 (IpaH-CTD), N-terminally his6-tagged, produced in CFPS, A0A0H2USG1 265-575 (domain or fragment)
chain: GPQIFFSMGNSATISAPEHSLADAVTAWFPENKQSDVSQIWHAFEHEEHANTFSAFLDRLSDTVSARNTSGFREQVAAWLEKLSASAELRQQSFAVAADATESCEDRVALTWNNLRKTLLVHQASEGLFDNDTGALLSLGREMFRLEILEDIARDKVRTLHFVDEIEVYLAFQTMLAEKLQLSTAVKEMRFYGVSGVTANDLRTAEAMVRSREENEFTDWFSLWGPWHAVLKRTEADRWAQAEEQKYEMLENEYSQRVADRLKASGLSGDADAEREAGAQVMRETEQQIYRQLTDEVLALRLSENGSNHIA
- binding: no binding
